Patent publication US20140061616A1, “ORGANIC SEMICONDUCTOR MATERIAL, COATING LIQUID CONTAINING THE MATERIAL, AND ORGANIC THIN FILM TRANSISTOR” (IDEMITSU KOSAN CO., LTD., priority 2010, published 2014)

Key:
[1] = Field-effect mobility of holes, organic thin film transistor produced by coating method; details: spin-coated film from 0.4 mass % toluene solution, p-type, gate voltage VG −70 V
[2] = Field-effect mobility of holes, organic thin film transistor produced by deposition method; details: for Field-effect mobility: vacuum-deposited 50 nm layer on Si/SiO2, holes, current saturation region

CCCCCCCCCCCCc1ccc2c(c1)sc1c2ccc2c1ccc1c3ccc(CCCCCCCCCCCC)cc3sc12 [Comparative compound (1)]
Field-effect mobility ([1]; listed as Comparative compound 1): 1.1 × 10^−4 cm^2/Vs | Field-effect mobility ([1]; listed as comparative compound (1)): very low | Field-effect mobility [2]: 1.2 × 10^−1 cm^2/Vs

CCCCCc1ccc2c(c1)sc1c2ccc2c1ccc1c3ccc(CCCCC)cc3sc12 [Compound A-3]
Field-effect mobility [1]: 1.1×10^−1 cm^2/Vs | Field-effect mobility [2]: 1.1 × 10^−0 cm^2/Vs | field-effect mobility of holes in the current saturation region ([2]; vacuum-deposited 50 nm layer, gate voltage 0 to −100 V): 1.1 cm^2Ns

c1ccc2cc3cc4cc5ccccc5cc4cc3cc2c1 [pentacene]
Field-effect mobility [2]: 3.8×10^1 cm^2/Vs
